Data from patent publication US20250275946A1, “COMBINATION THERAPY FOR THE TREATMENT OF CANCER” (UNM RAINFOREST INNOVATIONS, priority 2021, published 2025).
For at least one compound, name, drawing or mass did not settle the structure.

How the values were obtained:
[1] = test system: patient-derived tumor colonoids; test: RNA-seq analysis of patient-derived tumor colonoids treated with DFO; type: cell-based, human; conditions: DFO 0 or 100 μM, 4 days, FIG. 5A
Experimental: The adenoma colonoids culture was described previously. See Xue, et al., Cell Metab, 2016; 24: pp. 447-461). The culture plates were placed in a 37° C. incubator for 30 min to solidify the Matrigel, followed by the addition of 1 mL serum-free Keratinocyte Growth Media Gold (KGMG, Catalogue: 00195769, Lonza, Basel, Switzerland). After 24 hours of plating, colonoids were treated with DFO (0 or 100 μM) in KGMG for 4 days with fresh media change every other day. At the end of the experiment, culture media was aspirated off, and colonoids were lysed with Trizol to extract RNA.
RNA sequencing libraries were prepared using the TruSeq RNA library prep kit v2 (Illumina) following the manufacturer's recommended protocol. The libraries were sequenced using single-end 50-cycle reads on a HiSeq 4000 sequencer (Illumina) at the University of Michigan DNA Sequencing Core Facility. Raw sequencing read quality was assessed utilizing FastQC. Reads were aligned to the reference human transcriptome (UCSC) using STAR 2.5.2a. Default parameters were used for the alignment, with the exception of “--outFilterMultimapNmax 10” and “--sjdbScore 2”. Expression quantification and differential expression analysis between DFO and control tumor colonoids were conducted using CuffDiff v 2.1.1 using default settings. […]

[2] = test system: tumor colonoids; test: qPCR analysis of tumor colonoids after DFO treatment; type: cell-based, human; conditions: FIG. 5B
[3] = test system: HCT116, SW480 or RKO cancer cells; test: Immunoblotting analysis in human colon-derived cancer cells; type: cell-based
Experimental: (§1) Human HCT116, RKO, SW480, HEK293T and murine MC38 CRC cells were maintained at 37° C. in 5% CO2 and cultured in Dulbecco's modified Eagle medium (DMEM) supplemented with 10% fetal bovine serum (FBS) and 1% penicillin and streptomycin (VWR, Radnor, PA). HCT116 p53+/+ and p53−/− cells were a kind gift from Professor Bert Vogelstein at the Johns Hopkins University. For generating stable cell lines, MC38 cells were transfected with a mouse shTFRC plasmid (TRCN0000375695, Sigma, St. Louis, MO) or a mouse shPOLD1 plasmid (TRCN0000428858, Sigma), RKO cells were transfected with a human shPOLD1 plasmid (TRCN0000007924, Sigma) and selected with 1 μg/ml puromycin.
Cells and tumor tissues were lysed with radioimmunoprecipitation assay buffer. After incubation, cell extracts were centrifuged and the supernatant was collected for Bradford assay to quantify protein concentration by a BioTek Synergy HTX Multi-Mode Microplate Reader (BioTek, Winooski, VT). Equal amounts (20-50 μg) of protein were loaded for sodium dodecyl sulfate polyacrylamide gel electrophoresis (SDS-PAGE). The proteins inside the gels were transferred onto nitrocellulose membrane with a wet transfer method. The membranes were blocked with 3% milk for 1 hour. Primary antibodies were incubated overnight. Secondary antibodies were incubated for 1 hour. Antibodies for ferritin heavy chain (FTH1, #3998), IRP2 (#37135), active beta catenin (#8814), Anti-rabbit IgG HRP-linked Antibody (#7074) and Anti-mouse IgG HRP-linked Antibody (#7076) were from Cell signaling Technology (Danvers, MA). Primary antibodies for TFRC (sc-393719), HIF-1α, (sc-13515), HIF-2a (sc-13596), pS6 (sc-514033), pS6K (sc-8418), RRM2 (sc-398294), p-p53 (sc-377567), p53 (sc-6243), c-MYC (sc-40), GAPDH (sc-47724), Cyclin D1 (sc-718) and Actin (sc-8432) were from Santa Cruz Biotechnology (Dallas, TX). p-RPA2 (PA5-39809) was from Invitrogen (Carlsbad, CA). POLD1 (15646-1-AP), p-CHK1 (28805-1-AP), E2F1 (66515-1-Ig), Axin2 (20540-1-AP) and TNKS (18030-1-AP) were from Proteintech (Rosemont, IL).

[4] = test system: MC38 cells; test: Ferro-Orange staining of cellular ferrous iron; type: cell-based, murine; conditions: FIG. S6D
Experimental: Cells (2×10^5 cells/well) were plated into 24 well plates. After seeding, pre-warmed DMEM containing 0.5 μM ferroOrange (dojindo, Rockville, MD), was incubated at 37° C. for 30 min. After incubation, the cell images were taken. Representative images were taken using the RFP channel of an Invitrogen™ EVOS™ FL Auto Imaging System (Thermo Fisher Scientific, Waltham, MA). Fluorescence intensity was quantified using a SpectraMax M2 Microplate Reader (Molecular Devices, Radnor, PA) at excitation 543 nm and emission 580 nm. The intensity was normalized with protein concentrations.

[5] = test system: advanced hepatocellular carcinoma; conditions: cohort of 10 advanced hepatocellular carcinoma; cited from earlier work
[6] = test system: MC38 cells; test: Immunoblotting analysis in MC38 cells; type: cell-based, murine; conditions: MC38, 10 μM DFX and/or Prexasertib 20 nM, FIG. 9D
Experimental: as §1
Cells and tumor tissues were lysed with radioimmunoprecipitation assay buffer. After incubation, cell extracts were centrifuged and the supernatant was collected for Bradford assay to quantify protein concentration by a BioTek Synergy HTX Multi-Mode Microplate Reader (BioTek, Winooski, VT). Equal amounts (20-50 μg) of protein were loaded for sodium dodecyl sulfate polyacrylamide gel electrophoresis (SDS-PAGE). The proteins inside the gels were transferred onto nitrocellulose membrane with a wet transfer method. The membranes were blocked with 3% milk for 1 hour. Primary antibodies were incubated overnight. Secondary antibodies were incubated for 1 hour. […]

[7] = test system: SW480 cells; test: MTT assay in SW480 cells; type: cell-based, human; conditions: 48 hours
Experimental: as §1
(§2) Cells were plated at a concentration of 5×10^4 cells/mL in a 24 well plates. 125 μL 5 mg/mL MTT (Sigma, MO) was added to each plate and incubated for 30 min. Dimethyl sulfoxide (DMSO) was added and absorbance was measured at 570 nm using a BioTek Synergy HTX Multi-Mode Microplate Reader.

[8] = test system: MC38 cells; test: MTT assay in MC38 cells; type: cell-based, murine; conditions: MC38, 10 μM DFX and/or Prexasertib 20 nM, 48 hours, FIG. 9B
Experimental: as §1, §2

[9] = HCT116 and SW480 cells, 100 μM DFO, FIG. 5C
[10] = HCT116 or SW480, different doses of DFO, FIG. S5J
[11] = HCT116 or SW480 cells, different doses of DFO, dose-dependent, FIG. S5D

CC(=O)N(O)CCCCCNC(=O)CCC(=O)N(O)CCCCCNC(=O)CCC(=O)N(O)CCCCCN [DFO, deferoxamine]
expression of the nucleotide metabolic enzymes RRM2 and POLD1 (RNA-seq) [1]: decreased expression | mRNA expression of RRM2 and POLD1 (qPCR) [2]: significantly reduced | p-RPA2, p-CHK1, p-p53, γH2AX and CC3 ([3]; HCT116, SW480 or RKO cells, different doses of DFO, FIG. S7D): dose-dependently increased | DNA damage marker p-p53 [3, 9]: increased | protein expression of POLD1 [3, 9]: decreased | p-CHK1 Ser317, p-P53 Ser15, γH2AX, RPA-2 and CC3 ([3]; HCT116 and SW480 cells, different doses of DFO, FIG. 8A): dose-dependently increased | Axin2 protein [3, 10]: induced | cyclin D1 protein [3, 10]: decreased | E2F1, c-Myc, POLD1 and FTH1 protein [3, 11]: reduced | HIF-2α protein [3, 11]: increased | orange fluorescence signal (cellular ferrous iron) [4]: greatly reduced | overall response rate [5]: 20%

O=C(O)c1ccc(-n2nc(-c3ccccc3O)nc2-c2ccccc2O)cc1 [DFX, deferasirox]
level of Prexasertib-induced γH2AX ([3]; SW480, 10 μM DFX and/or 100 nM Prexasertib, FIG. 9C): potentiated | level of Prexasertib-induced γH2AX [6]: potentiated | cell growth (MTT) ([7]; SW480, 10 μM DFX and/or 100 nM Prexasertib, FIG. 9A): promoted Prexasertib inhibited cell growth | synergistic effect on cell growth (MTT) ([7]; SW480 and MC38 cells, 10 μM DFX, 10 uM VE-822 or 100 nM Prexasertib, FIG. S7G, S7H): synergistic effect was further validated | cell growth (MTT) [8]: promoted Prexasertib inhibited cell growth
